No constants are given. Whether binding was seen depends on the method and setting. In cells and extracts the contact can be indirect. These calls come from enrichment with a bait or labelling near it, and not all partners need be listed.
Target: FLAG-PROX1, wild type, expressed in HEK293T (UniProt Q92786)
Assay: affinity purification with mass spectrometry; HEK293T cells transfected with FLAG-PROX1 or control plasmid, RIPA lysate, anti-FLAG M2-agarose beads, washed six times, SDS-PAGE, mass spectrometry; glucose starvation in the presence of MG132

Protein sequences, listed by entry. Tags and fused reporters are not part of them.
UniProt Q92786: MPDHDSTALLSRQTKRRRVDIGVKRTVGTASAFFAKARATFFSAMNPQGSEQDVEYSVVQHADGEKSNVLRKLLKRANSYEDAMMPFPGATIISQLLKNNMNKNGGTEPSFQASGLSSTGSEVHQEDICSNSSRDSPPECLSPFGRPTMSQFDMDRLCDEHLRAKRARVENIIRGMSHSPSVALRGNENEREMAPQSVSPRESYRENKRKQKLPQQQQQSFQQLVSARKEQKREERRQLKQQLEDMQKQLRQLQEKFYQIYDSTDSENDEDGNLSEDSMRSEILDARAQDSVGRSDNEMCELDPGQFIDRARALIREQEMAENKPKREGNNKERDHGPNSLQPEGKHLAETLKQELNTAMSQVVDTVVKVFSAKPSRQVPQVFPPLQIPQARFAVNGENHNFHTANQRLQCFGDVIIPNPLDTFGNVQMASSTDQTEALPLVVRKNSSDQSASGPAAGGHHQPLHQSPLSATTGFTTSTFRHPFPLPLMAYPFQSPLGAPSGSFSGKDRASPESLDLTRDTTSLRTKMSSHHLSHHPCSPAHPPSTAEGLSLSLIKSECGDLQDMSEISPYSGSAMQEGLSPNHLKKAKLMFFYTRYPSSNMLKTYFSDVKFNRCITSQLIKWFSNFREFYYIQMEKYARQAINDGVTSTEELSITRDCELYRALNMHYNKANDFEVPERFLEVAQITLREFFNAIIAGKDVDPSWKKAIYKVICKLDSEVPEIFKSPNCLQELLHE
UniProt Q13619: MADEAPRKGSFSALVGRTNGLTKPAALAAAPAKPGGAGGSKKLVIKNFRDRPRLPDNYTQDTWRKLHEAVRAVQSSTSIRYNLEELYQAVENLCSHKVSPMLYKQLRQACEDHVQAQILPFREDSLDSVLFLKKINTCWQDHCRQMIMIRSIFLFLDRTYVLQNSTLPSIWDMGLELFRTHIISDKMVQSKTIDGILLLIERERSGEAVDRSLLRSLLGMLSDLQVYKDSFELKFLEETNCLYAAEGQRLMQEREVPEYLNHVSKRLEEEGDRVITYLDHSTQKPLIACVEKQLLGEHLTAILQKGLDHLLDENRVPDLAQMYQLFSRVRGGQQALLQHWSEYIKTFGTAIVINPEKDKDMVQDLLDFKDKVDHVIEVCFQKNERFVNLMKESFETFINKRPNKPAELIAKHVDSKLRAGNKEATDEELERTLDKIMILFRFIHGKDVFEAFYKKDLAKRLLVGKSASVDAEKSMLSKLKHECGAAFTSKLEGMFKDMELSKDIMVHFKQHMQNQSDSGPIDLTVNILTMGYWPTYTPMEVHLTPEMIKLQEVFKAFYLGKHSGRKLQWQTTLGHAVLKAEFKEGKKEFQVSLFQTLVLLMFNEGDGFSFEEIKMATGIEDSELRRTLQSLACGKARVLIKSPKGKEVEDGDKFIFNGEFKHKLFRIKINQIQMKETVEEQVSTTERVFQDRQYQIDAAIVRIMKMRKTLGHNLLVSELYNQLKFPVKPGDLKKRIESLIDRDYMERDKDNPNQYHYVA
UniProt Q16531: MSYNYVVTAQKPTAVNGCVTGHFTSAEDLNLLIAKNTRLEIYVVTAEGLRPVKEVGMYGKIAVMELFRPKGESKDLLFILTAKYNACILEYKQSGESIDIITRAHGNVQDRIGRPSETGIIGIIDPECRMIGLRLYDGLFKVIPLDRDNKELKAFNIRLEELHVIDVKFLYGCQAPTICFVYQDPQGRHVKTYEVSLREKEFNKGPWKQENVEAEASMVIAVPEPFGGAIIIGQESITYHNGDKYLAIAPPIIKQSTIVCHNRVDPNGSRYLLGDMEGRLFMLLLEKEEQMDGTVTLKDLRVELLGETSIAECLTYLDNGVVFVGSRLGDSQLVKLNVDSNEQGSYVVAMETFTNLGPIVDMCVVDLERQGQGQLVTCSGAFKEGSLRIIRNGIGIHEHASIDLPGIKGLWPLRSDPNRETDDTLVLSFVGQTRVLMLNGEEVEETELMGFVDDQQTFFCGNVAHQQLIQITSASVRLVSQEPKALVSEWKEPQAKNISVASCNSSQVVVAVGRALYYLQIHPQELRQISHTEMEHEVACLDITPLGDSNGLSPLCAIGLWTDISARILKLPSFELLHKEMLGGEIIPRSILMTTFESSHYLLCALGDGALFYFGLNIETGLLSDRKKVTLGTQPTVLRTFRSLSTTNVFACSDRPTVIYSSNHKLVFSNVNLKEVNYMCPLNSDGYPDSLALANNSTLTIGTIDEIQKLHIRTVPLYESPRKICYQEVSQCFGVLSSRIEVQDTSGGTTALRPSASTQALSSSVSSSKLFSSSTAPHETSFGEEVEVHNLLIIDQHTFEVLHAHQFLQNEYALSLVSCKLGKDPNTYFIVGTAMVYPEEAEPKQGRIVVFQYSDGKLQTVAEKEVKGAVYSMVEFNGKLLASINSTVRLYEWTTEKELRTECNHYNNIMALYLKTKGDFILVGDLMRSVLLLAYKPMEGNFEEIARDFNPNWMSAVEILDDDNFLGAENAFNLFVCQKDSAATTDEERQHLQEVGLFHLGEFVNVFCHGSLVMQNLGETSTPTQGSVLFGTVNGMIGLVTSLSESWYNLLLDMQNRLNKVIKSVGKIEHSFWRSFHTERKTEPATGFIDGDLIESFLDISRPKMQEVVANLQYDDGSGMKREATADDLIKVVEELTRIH
UniProt Q13620: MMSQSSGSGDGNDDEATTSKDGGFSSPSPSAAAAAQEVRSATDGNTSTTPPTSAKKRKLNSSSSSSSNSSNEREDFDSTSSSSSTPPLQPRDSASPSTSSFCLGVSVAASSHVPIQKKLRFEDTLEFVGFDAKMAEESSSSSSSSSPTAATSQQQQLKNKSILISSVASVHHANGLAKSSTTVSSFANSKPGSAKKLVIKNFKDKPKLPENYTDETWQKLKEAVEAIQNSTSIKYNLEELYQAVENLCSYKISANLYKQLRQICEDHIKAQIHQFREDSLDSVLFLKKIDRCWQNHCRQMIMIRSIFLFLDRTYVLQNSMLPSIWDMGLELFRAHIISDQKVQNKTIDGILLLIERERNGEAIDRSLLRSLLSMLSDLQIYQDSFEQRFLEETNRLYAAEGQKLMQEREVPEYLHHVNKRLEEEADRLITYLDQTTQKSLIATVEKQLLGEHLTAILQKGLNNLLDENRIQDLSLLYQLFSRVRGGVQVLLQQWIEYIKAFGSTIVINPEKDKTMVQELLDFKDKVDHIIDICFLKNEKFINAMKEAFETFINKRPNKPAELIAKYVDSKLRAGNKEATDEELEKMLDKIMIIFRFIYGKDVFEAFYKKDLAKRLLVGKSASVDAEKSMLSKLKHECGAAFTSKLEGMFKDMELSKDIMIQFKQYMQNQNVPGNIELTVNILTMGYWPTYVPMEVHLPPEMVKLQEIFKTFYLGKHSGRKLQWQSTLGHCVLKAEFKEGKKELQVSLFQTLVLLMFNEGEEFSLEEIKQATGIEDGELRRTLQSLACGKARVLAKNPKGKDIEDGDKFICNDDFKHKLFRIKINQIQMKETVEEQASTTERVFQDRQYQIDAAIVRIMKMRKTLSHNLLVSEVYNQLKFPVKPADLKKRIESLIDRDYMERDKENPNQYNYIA

| Substance | binding |
| --- | --- |
| CUL4A found by mass spectrometry with FLAG-PROX1 (from UniProt Q13619 1-759) | binds |
| DDB1 found by mass spectrometry with FLAG-PROX1 (from UniProt Q16531 1-1140) | binds |
| CUL4B found by mass spectrometry with FLAG-PROX1 (from UniProt Q13620 1-913) | binds |

From paper PMC9700865
